Measured values taken from paper PMC11582751.
Positions count from the first letter of the chain named. No constants are given. Whether binding was seen depends on the method and setting. Binding seen in cells or lysates may run through a third protein. Some entries that bind do so weakly or less than the wild type. For part of these data: Sequences can lack the tags named with a protein. Values belong to the substance of their own block, whether it stands above or below them.

By UniProt entry, the sequences of proteins in these tests, tags left out.
UniProt Q7L9L4: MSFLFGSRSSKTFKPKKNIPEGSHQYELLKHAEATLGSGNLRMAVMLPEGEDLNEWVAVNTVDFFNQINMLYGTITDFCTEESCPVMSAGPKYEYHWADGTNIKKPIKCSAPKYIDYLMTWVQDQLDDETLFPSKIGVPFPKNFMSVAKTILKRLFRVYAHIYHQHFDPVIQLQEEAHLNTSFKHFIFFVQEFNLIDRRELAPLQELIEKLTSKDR
UniProt Q9Y2H1: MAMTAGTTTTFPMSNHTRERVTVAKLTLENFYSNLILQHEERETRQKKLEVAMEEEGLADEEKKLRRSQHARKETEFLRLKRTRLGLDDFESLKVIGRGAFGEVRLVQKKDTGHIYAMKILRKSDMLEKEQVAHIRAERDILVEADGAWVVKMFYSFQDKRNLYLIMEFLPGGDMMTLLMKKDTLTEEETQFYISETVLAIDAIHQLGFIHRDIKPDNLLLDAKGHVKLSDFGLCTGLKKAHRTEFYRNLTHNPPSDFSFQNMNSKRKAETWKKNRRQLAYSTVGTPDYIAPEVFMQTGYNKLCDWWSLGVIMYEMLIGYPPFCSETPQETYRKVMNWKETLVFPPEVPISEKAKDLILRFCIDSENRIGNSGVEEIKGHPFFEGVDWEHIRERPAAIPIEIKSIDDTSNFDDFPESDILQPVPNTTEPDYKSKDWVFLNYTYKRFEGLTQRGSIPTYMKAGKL
UniProt Q15208: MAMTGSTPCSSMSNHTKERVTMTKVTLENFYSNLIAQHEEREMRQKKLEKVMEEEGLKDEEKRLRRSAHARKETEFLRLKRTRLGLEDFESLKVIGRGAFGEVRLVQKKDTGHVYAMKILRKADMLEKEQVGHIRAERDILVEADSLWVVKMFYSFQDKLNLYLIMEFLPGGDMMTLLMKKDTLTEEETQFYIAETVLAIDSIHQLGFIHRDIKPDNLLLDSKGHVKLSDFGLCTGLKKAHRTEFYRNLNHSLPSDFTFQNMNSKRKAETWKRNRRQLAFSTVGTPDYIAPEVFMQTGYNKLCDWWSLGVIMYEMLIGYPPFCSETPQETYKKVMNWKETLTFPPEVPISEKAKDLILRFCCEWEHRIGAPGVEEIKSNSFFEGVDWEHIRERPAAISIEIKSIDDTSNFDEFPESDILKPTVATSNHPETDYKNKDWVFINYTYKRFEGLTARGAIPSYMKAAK

What was measured:
SFB-VANGL1 (human) = biological target: T1, SFB-VANGL1 (human) (UniProt Q8TAA9); test: pull-down; HEK293T cells transfected with HA-NF2 constructs and SFB-tagged LATS1, AMOT or VANGL1; pulldown assay
T1 sequence: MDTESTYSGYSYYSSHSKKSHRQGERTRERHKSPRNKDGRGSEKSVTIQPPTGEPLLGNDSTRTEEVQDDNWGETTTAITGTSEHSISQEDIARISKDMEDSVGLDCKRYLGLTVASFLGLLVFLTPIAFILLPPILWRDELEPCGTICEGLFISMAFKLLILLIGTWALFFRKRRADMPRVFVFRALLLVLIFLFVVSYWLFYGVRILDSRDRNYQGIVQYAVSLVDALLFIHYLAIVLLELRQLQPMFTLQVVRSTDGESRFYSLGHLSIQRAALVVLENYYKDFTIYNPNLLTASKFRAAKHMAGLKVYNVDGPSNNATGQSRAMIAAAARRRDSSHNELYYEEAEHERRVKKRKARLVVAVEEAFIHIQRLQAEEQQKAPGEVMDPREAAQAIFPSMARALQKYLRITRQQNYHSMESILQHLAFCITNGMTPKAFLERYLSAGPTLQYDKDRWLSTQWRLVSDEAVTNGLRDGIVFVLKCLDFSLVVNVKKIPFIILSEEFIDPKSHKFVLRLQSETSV

SFB-tagged MOB1A (human) = biological target: T2, SFB-tagged MOB1A (human) (UniProt Q9H8S9); test: pull-down; MOB1A/B and their H161 mutants with STK38 or STK38L (Supplementary Fig. 12c-f; legends not shown)
T2 sequence: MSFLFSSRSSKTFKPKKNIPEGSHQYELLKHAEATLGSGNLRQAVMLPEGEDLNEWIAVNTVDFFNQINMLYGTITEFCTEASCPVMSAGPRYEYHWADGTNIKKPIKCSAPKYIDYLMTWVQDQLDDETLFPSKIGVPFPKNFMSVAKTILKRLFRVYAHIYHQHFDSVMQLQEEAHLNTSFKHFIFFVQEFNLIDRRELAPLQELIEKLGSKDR

SFB-tagged MOB1B (human) = biological target: T3, SFB-tagged MOB1B (human) (UniProt Q7L9L4); test: as above
T3 sequence: T2 sequence with S6G, Q43M, I57V, E77D, A82E, R92K, S169P, M171I, G212T

SFB-tagged LATS1 (human) = biological target: T4, SFB-tagged LATS1 (human) (UniProt O95835); test: pull-down; HEK293T cells transfected with HA-NF2 constructs and SFB-tagged LATS1, AMOT or VANGL1; pulldown assay
T4 sequence: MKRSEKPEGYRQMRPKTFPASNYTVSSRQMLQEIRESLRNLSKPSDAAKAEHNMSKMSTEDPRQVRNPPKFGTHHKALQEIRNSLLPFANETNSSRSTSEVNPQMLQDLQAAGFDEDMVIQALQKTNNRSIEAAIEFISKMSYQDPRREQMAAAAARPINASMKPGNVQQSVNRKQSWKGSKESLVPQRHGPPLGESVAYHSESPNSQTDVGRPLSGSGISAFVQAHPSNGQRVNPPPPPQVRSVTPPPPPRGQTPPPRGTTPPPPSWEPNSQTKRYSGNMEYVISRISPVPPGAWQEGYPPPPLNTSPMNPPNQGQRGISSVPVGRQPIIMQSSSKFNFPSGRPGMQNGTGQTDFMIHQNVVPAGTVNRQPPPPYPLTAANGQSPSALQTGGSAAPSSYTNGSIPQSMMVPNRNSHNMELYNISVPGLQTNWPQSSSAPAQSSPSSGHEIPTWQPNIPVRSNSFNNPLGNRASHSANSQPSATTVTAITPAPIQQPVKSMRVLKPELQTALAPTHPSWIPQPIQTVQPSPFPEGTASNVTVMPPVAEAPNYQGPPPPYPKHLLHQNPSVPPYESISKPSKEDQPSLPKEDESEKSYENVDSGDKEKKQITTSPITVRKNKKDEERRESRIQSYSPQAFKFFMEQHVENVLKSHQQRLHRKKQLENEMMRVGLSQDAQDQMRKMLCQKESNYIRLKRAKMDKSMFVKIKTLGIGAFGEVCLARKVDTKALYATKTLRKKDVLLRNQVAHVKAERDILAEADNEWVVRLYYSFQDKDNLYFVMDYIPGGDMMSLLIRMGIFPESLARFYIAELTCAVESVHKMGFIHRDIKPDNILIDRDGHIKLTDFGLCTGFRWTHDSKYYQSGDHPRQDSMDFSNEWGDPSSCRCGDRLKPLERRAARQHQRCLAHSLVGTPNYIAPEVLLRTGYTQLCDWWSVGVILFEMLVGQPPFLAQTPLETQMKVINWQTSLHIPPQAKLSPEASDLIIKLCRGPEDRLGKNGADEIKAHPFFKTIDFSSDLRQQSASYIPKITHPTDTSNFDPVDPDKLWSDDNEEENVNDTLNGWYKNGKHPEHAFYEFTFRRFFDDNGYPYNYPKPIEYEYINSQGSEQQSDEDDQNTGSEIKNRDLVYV

Substance: HA-NF2 L141R (from UniProt P35240 1-595)
binding (SFB-VANGL1 (human)): binds

Substance: HA-NF2 L46R (from UniProt P35240 1-595)
binding (SFB-VANGL1 (human)): binds

Substance: STK38L (from UniProt Q9Y2H1 1-464)
binding (SFB-tagged MOB1A (human)): binds
binding (SFB-tagged MOB1B (human)): binds

Substance: HA-NF2 L208P (from UniProt P35240 1-595)
binding (SFB-VANGL1 (human)): binds

Substance: HA-NF2 (from UniProt P35240 1-595)
binding (SFB-tagged LATS1 (human)): binds

Next, values leading:

binding (SFB-VANGL1 (human)): binds
Substance: HA-NF2 A211D (from UniProt P35240 1-595)

binding (SFB-tagged MOB1A (human)): binds
binding (SFB-tagged MOB1B (human)): binds
Substance: STK38 (from UniProt Q15208 1-465)
